The source of these data is publication PMC10419918.

Protein sequences, listed by entry. Tags and fused reporters are not part of them.
UniProt Q96524: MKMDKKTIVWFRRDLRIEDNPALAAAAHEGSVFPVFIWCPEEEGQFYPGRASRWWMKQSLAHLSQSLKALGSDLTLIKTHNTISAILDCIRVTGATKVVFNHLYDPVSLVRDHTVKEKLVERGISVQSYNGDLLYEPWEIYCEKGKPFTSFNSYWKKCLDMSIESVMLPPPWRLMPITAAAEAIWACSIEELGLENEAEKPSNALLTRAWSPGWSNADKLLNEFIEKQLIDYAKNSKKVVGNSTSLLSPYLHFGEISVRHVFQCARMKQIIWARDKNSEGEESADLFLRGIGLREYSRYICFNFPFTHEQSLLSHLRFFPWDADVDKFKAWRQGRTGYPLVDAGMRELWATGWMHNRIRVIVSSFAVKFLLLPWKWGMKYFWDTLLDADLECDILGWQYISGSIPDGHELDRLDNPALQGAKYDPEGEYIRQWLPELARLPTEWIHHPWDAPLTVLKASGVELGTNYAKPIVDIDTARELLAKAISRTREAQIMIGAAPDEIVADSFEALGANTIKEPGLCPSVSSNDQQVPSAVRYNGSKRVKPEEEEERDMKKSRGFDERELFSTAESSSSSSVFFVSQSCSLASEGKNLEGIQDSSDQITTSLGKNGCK

Read-outs that look alike come from different tables or passages of the source. These are yes or no findings as the source states them, for the method shown. In cells and extracts the contact can be indirect. Some results given as binding are weak or reduced against the parent protein; the word gives no strength. Where a sequence is shown, tags or fusion partners need not be part of it.

For experiment [1], the target named is T1, FGFP–NF–YC8 (Arabidopsis) (UniProt Q4PSE2).
T1 sequence: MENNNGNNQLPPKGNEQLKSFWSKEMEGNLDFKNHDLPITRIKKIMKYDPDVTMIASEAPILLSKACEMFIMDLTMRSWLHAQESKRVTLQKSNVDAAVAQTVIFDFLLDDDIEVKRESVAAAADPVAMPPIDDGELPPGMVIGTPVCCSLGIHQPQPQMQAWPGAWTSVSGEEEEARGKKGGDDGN
Kind of experiment: co-IP; Arabidopsis seedlings Myc–CRY2/FGFP–NF–YCs grown in the dark for 8 days, exposed to blue light (0 min, or 5, 10 and 15 min samples mixed); precipitated with GFP–Trap agarose beads; blots with anti–GFP and anti–Myc.

Experiment [2] has as its target T2, FGFP–NF–YC5 (Arabidopsis) (UniProt Q9FGP6).
T2 sequence: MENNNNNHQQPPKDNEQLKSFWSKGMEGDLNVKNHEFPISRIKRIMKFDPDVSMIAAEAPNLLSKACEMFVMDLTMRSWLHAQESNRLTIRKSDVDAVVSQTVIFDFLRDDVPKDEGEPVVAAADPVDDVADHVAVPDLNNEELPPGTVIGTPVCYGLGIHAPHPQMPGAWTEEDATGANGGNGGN
Described as above.

In experiment [3] the target is T3, FGFP–NF–YC7 (Arabidopsis) (UniProt Q9FGP8).
T3 sequence: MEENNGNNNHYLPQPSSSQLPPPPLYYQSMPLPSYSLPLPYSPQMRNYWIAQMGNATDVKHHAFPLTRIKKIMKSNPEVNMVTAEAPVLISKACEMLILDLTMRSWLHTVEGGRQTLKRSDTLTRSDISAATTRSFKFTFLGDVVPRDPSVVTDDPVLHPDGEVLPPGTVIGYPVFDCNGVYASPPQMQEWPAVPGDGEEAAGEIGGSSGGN
The experiment is described as above.

Experiment [4] concerns the target T4, GFP–NF–YC7 (Arabidopsis) (UniProt Q9FGP8).
T4 sequence: T3 sequence
Put plainly: co-IP; HEK293T cells co-expressing GFP–NF–YCs with Myc–CRY2 and/or Flag–PIFs (CMV5 promoter); cells kept in darkness or blue light (100 μmol m^−2 s^−1, 1 h); GFP–NF–YCs precipitated with GFP–Trap agarose beads; blots with anti–GFP, anti–Myc, anti–Flag.

Another experiment has as its target T5, GFP–NF–YC8 (Arabidopsis) (UniProt Q4PSE2).
T5 sequence: T1 sequence
Described as above.

The target of experiment [5] is T6, GFP–NF–YC5 (Arabidopsis) (UniProt Q9FGP6).
T6 sequence: T2 sequence
Described as above.

Experiment [6] has as its target T7, NF–YC5–nLUC (Arabidopsis) (UniProt Q9FGP6).
T7 sequence: T2 sequence
Kind of experiment: split reporter; firefly luciferase complementation imaging (LCI): NF–YCs–nLUC and cLUC–PIFs transiently expressed in N. benthamiana leaves, in the absence or presence of Myc–CRY2; 1 mM luciferin, 5 min in the dark.

Experiment [7] deals with T8, NF–YC7–nLUC (Arabidopsis) (UniProt Q9FGP8).
T8 sequence: T3 sequence
The description is as above.

The target of experiment [8] is T4, GFP–NF–YC7 (Arabidopsis). Kind of experiment: co-IP; HEK293T cells co-expressing GFP–NF–YCs with Myc–CRY2 and/or Flag–PIFs (CMV5 promoter); cells kept in darkness or blue light (100 μmol m^−2 s^−1, 1 h); GFP–NF–YCs precipitated with GFP–Trap agarose beads; blots with anti–GFP, anti–Myc, anti–Flag. This is another data set of the same source.
Experiment [9] deals with T6, GFP–NF–YC5 (Arabidopsis). Described as above. This is another data set of the same source.

Consider “Myc–CRY2 (Arabidopsis line) (from UniProt Q96524 1-612)”, for which the binding entry in experiment [1], in [2] and in experiment [3] was “binds” throughout.

For the molecule “Myc–CRY2 (HEK293T) (from UniProt Q96524 1-612)”, the binding entry with GFP–NF–YC7 (Arabidopsis) [4], in the experiment with GFP–NF–YC8 (Arabidopsis) and with GFP–NF–YC5 (Arabidopsis) [5] was “binds” each time.

Regarding “Myc–CRY2 (N. benthamiana) (from UniProt Q96524 1-612)”, the binding entry in experiment [6] and in experiment [7] was “binds” in each case.

B1: Flag–PIF5 (HEK293T) (protein, UniProt Q84LH8 1-444)
chain: MEQVFADWNFEDNFHMSTNKRSIRPEDELVELLWRDGQVVLQSQARREPSVQVQTHKQETLRKPNNIFLDNQETVQKPNYAALDDQETVSWIQYPPDDVIDPFESEFSSHFFSSIDHLGGPEKPRTIEETVKHEAQAMAPPKFRSSVITVGPSHCGSNQSTNIHQATTLPVSMSDRSKNVEERLDTSSGGSSGCSYGRNNKETVSGTSVTIDRKRKHVMDADQESVSQSDIGLTSTDDQTMGNKSSQRSGSTRRSRAAEVHNLSERRRRDRINERMKALQELIPHCSRTDKASILDEAIDYLKSLQMQLQVMWMGSGMAAAAAAAASPMMFPGVQSSPYINQMAMQSQMQLSQFPVMNRSAPQNHPGLVCQNPVQLQLQAQNQILSEQLARYMGGIPQMPPAGNQMQTVQQQPADMLGFGSPAGPQSQLSAPATTDSLHMGKIG
For the molecule B1, the binding result with GFP–NF–YC7 (Arabidopsis) [8] and with GFP–NF–YC5 (Arabidopsis) [9] was “binds” throughout.

B2: cLUC–PIF5 (protein, UniProt Q84LH8 1-444)
chain: B1 chain
With B2, the binding entry in [6] and in experiment [7] was “binds” each time.
